Data from patent publication US11633379B2, “Methods of inhibiting PCSK9” (TRUSTEES OF DARTMOUTH COLLEGE, priority 2017, dated 2023).

Experiment: Plasma total cholesterol in mice
Type: in vivo

CC(=O)Oc1ccc(C2CC3(CCCCC3)c3c2[nH]c2ccccc32)cc1 (centres unmarked) [Compound 34]
plasma cholesterol (mostly HDL) (5-day oral 100 mg/kg/day, FIG. 13A): no significant changes | plasma cholesterol (mostly HDL) (single oral 100 mg/kg, FIG. 11A): not affected
